In experiment [1] the target is recombinant human Meningioma Expressed Antigen 5 (MGEA5), also referred to as O-GlcNAcase (OGA) (Homo sapiens, UniProt O60502). The experiment is described as follows: OGA biochemical assay (inhibition of FM-GlcNAc hydrolysis, fluorescence). To be noted: FM-GlcNAc substrate; for Enzymatic hOGA; pIC50: 6 h at room temperature; for Enzymatic Emax (%): maximal effect. An excerpt: The assay is based on the inhibition of the hydrolysis of fluorescein mono-β-D-N-Acetyl-Glucosamine (FM-GlcNAc) (Mariappa et al. 2015, Biochem J 470:255) by the recombinant human Meningioma Expressed Antigen 5 (MGEA5), also referred to as O-GlcNAcase (OGA). The hydrolysis FM-GlcNAc (Marker Gene technologies, cat #M1485) results in the formation of β-D-N-glucosamineacetate and fluorescein. The fluorescence of the latter can be measured at excitation wavelength 485 nm and emission wavelength 538 nm. An increase in enzyme activity results in an increase in fluorescence signal. Full length OGA enzyme was purchased at OriGene (cat #TP322411). The enzyme was stored in 25 mM Tris.HCl, pH 7.3, 100 mM glycine, 10% glycerol at −20° C. Thiamet G and GlcNAcStatin were tested as reference compounds (Yuzwa et al. 2008 Nature Chemical Biology 4:483; Yuzwa et al. 2012 Nature Chemical Biology 8:393). The assay was performed in 200 mM Citrate/phosphate buffer supplemented with 0.005% Tween-20. 35.6 g Na2HPO4 2H2O (Sigma, #C0759) were dissolved in 1 L water to obtain a 200 mM solution. 19.2 g citric acid (Merck, #1.06580) was dissolved in 1 L water to obtain a 100 mM solution. pH of the sodiumphosphate solution was adjusted with the citric acid solution to 7.2. The buffer to stop the reaction consists of a 500 mM Carbonate buffer, pH 11.0. 734 mg FM-GlcNAc were dissolved in 5.48 mL DMSO to obtain a 250 mM solution and was stored at −20° C. OGA was used at a 2 nM concentration and FM-GlcNAc at a 100 uM final concentration. Dilutions were prepared in assay buffer.
50 nl of a compound dissolved in DMSO was dispensed on Black Proxiplate™ 384 Plus Assay plates (Perkin Elmer, #6008269) and 3 μl fl-OGA enzyme mix added subsequently. Plates were pre-incubated for 60 min at room temperature and then 2 μl FM-GlcNAc substrate mix added. […] Plates were briefly centrifuged for 1 min at 1000 rpm and incubate at room temperature for 6 h. To stop the reaction 5 μl STOP buffer were added and plates centrifuge again 1 min at 1000 rpm. Fluorescence was quantified in the Thermo Scientific Fluoroskan Ascent or the PerkinElmer EnVision with excitation wavelength 485 nm and emission wavelength 538 nm.
For analysis a best-fit curve is fitted by a minimum sum of squares method. From this an IC50 value and Hill coefficient was obtained. High control (no inhibitor) and low control (saturating concentrations of standard inhibitor) were used to define the minimum and maximum values.

By UniProt entry, the sequences of proteins in these tests, tags left out.
UniProt O60502, whole entry: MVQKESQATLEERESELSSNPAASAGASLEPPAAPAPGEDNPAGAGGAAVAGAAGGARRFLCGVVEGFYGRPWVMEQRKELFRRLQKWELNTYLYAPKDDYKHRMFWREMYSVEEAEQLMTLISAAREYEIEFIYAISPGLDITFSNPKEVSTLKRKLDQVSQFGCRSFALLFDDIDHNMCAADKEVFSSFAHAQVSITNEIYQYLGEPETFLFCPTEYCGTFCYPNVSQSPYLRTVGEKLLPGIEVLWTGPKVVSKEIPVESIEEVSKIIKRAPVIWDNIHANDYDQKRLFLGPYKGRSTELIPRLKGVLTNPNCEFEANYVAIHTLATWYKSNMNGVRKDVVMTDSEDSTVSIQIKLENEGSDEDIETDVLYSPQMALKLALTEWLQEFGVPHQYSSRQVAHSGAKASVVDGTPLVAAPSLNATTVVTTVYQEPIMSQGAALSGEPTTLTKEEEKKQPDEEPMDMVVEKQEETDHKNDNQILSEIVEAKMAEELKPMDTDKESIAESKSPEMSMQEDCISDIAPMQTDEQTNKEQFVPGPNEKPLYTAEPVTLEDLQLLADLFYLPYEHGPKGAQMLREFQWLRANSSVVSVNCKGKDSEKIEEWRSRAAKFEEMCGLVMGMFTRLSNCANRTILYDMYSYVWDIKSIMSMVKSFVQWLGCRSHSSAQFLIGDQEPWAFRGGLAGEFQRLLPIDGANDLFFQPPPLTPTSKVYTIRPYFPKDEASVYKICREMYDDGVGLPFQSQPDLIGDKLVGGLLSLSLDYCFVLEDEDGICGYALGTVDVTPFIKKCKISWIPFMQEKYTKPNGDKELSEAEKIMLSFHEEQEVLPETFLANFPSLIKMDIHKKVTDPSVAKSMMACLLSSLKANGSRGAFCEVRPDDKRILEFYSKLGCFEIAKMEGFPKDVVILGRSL

The target in another experiment is OGA (Homo sapiens, UniProt O60502). The experiment is described as follows: OGA cellular assay (ICC detection of O-GlcNAcylated proteins in HEK293 cells inducible for P301L mutant human Tau). To be noted: for Cellular hOGA; pEC50: 6 hours incubation; for Cellular Emax (%): maximum = Thiamet G 200 uM. The protocol:
HEK293 cells inducible for P301L mutant human Tau (isoform 2N4R) were established at Janssen. Thiamet-G was used for both plate validation (high control) and as reference compound (reference EC50 assay validation). OGA inhibition is evaluated through the immunocytochemical (ICC) detection of O-GlcNAcylated proteins by the use of a monoclonal antibody (CTD110.6; Cell Signaling, #9875) detecting 0-GlcNAcylated residues as previously described (Dorfmueller et al. 2010 Chemistry & biology, 17:1250). Inhibition of OGA will result in an increase of O-GlcNAcylated protein levels resulting in an increased signal in the experiment. Cell nuclei are stained with Hoechst to give a cell culture quality control and a rough estimate of immediate compounds toxicity, if any. ICC pictures are imaged with a Perkin Elmer Opera Phenix plate microscope and quantified with the provided software Perkin Elmer Harmony 4.1.
Cells were propagated in DMEM high Glucose (Sigma, #D5796) following standard procedures. 2 days before the cell assay cells are split, counted and seeded in Poly-D-Lysine (PDL) coated 96-wells (Greiner, #655946) plate at a cell density of 12,000 cells per cm^2 (4,000 cells per well) in 100 μl of Assay Medium (Low Glucose medium is used to reduce basal levels of GlcNAcylation) (Park et al. 2014 The Journal of biological chemistry 289:13519). At the day of compound test medium from assay plates was removed and replenished with 90 μl of fresh Assay Medium. 10 μl of compounds at a 10fold final concentration were added to the wells. Plates were centrifuged shortly before incubation in the cell incubator for 6 hours. DMSO concentration was set to 0.2%. Medium is discarded by applying vacuum. For staining of cells medium was removed and cells washed once with 100 μl D-PBS (Sigma, #D8537). From next step onwards unless other stated assay volume was always 50 μl and incubation was performed without agitation and at room temperature. Cells were fixed in 50 μl of a 4% paraformaldehyde (PFA, Alpha aesar, #043368) PBS solution for 15 minutes at room temperature. […] Before analysis samples were washed 2 times manually for 5 minutes in ICC base buffer.
Imaging is performed using Perkin Elmer Phenix Opera using a water 20× objective and recording 9 fields per well. Intensity readout at 488 nm is used as a measure of O-GlcNAcylation level of total proteins in wells. To assess potential toxicity of compounds nuclei were counted using the Hoechst staining. IC50-values are calculated using parametric non-linear regression model fitting. As a maximum inhibition Thiamet G at a 200 uM concentration is present on each plate. In addition, a concentration response of Thiamet G is calculated on each plate.

Consider four compounds from patent publication US20210115040A1, “OGA INHIBITOR COMPOUNDS” (Janssen Pharmaceutica NV, priority 2018, published 2021).

Structures were worked out from names or drawings and are uncertain.

`COc1cc(OC[C@@H]2CCN(C(C)c3ccc4sc(C)nc4n3)C2)cc(C)n1` (stereo partly drawn): in experiment [1], the “Enzymatic hOGA; pIC50” value is given as 6.0 and the “Enzymatic Emax (%)” value stood at 93%. For the same compound, at OGA, the “Cellular hOGA; pEC50” value is under 6 and the “Cellular Emax (%)” value amounted to 2%.
As for `Cc1cc(C[C@H]2CCCN(C(C)c3ccc4nn(C)cc4c3)C2)cc(C)n1` (stereo partly drawn), in experiment [1], the “Enzymatic hOGA; pIC50” value turned out to be 6.0 and the “Enzymatic Emax (%)” value is listed as 92%.
Turning to `Cc1cc(C[C@H]2CCCN(C(C)c3cc4nn(C)cc4cn3)C2)cc(C)n1` (stereo partly drawn), in experiment [1], the “Enzymatic hOGA; pIC50” value is on record as 6.6 and the “Enzymatic Emax (%)” value is recorded as 99%.
With `Cc1cc(C[C@H]2CCCN(C(C)c3cnc4cn(C)nc4c3)C2)cc(C)n1` (stereo partly drawn), in experiment [1] (tested form: 2HCl), the “Enzymatic hOGA; pIC50” value amounted to 7.6 and the “Enzymatic Emax (%)” value is listed as 103%. At OGA (tested form: 2HCl), the “Cellular hOGA; pEC50” value is on record as under 6 and the “Cellular Emax (%)” value stood at 45%.
